Experiment [1] addresses murine von Willebrand factor (VWF) (mouse), Q8CIZ8. Description: platelet adhesion under flow. Conditions: remark: other sources report otherwise.
The target is the same in experiment [2]. Description: static platelet adhesion and spreading on coated coverslips. The note with it: remark: other sources report otherwise.
For experiment [3], the target named is murine von Willebrand factor (VWF) (mouse) (UniProt Q8CIZ8). Described as above.

The chains behind the UniProt entries cited, without tags or fusion partners. Residues count along the entry.
UniProt Q8CIZ8, residues 764-2813: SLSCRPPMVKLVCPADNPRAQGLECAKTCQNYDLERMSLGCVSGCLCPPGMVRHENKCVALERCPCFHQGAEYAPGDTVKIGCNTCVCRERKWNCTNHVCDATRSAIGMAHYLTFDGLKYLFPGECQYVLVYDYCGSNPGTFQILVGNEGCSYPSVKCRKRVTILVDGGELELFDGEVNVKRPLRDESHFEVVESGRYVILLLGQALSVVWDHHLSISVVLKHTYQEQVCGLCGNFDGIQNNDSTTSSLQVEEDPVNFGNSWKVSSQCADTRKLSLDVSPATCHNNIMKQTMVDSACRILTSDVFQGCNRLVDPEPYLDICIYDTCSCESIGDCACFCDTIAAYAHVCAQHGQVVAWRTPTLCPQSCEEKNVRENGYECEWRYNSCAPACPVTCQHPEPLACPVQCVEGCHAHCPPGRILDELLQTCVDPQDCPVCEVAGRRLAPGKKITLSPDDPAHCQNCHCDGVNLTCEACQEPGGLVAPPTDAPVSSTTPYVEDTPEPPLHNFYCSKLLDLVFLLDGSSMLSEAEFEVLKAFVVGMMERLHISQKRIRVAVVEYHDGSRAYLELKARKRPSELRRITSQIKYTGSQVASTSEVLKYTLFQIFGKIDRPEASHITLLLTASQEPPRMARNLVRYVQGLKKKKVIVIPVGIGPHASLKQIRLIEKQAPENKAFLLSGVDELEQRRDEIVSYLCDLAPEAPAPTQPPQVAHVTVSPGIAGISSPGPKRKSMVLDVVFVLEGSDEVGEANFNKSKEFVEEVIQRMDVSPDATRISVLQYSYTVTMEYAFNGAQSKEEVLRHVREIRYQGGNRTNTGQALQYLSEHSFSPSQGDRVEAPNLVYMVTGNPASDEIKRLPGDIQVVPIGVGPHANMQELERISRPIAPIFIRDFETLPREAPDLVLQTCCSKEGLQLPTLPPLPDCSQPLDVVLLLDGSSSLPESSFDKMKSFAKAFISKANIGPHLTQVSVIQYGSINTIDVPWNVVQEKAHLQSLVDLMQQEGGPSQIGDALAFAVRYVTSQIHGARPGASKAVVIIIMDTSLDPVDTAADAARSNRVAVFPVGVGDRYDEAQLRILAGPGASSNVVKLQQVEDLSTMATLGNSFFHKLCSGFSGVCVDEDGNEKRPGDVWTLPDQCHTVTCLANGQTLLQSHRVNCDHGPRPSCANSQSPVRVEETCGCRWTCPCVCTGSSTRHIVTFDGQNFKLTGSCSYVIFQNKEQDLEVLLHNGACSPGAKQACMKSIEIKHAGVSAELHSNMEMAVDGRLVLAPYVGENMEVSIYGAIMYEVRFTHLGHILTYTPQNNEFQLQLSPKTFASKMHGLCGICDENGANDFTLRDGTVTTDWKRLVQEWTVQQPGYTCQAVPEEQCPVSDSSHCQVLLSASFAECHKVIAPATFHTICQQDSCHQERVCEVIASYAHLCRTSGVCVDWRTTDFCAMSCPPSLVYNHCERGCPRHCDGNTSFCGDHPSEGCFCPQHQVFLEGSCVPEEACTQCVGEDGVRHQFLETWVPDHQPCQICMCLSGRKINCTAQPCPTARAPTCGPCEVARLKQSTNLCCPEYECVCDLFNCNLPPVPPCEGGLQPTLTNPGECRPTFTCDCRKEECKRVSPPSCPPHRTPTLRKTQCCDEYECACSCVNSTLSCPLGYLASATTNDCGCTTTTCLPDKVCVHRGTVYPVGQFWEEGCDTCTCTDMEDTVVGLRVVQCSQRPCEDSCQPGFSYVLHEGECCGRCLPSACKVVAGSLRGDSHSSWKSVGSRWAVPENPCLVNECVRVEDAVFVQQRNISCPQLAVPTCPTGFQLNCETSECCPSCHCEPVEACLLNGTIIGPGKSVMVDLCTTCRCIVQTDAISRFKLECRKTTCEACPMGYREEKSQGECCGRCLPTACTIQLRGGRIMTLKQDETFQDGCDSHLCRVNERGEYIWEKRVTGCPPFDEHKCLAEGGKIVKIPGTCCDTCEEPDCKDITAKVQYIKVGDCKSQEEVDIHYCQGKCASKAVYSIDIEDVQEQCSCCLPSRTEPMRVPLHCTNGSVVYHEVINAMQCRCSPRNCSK

Binding data for 2 molecules are collected here from publication doi:10.1101/2020.12.16.423021.

These are yes or no findings as the source states them, for the method shown. Some entries that bind do so weakly or less than the wild type.

B1: murine GPIbα (glycoprotein Ibα), wild type, on platelets of GpIbα^+/+ mice, O35930 17-734 (receptor)
chain: QHTCSISKVTSLLEVNCENKKLTALPADLPADTGILHLGENQLGTFSTASLVHFTHLTYLYLDRCELTSLQTNGKLIKLENLDLSHNNLKSLPSLGWALPALTTLDVSFNKLGSLSPGVLDGLSQLQELYLQNNDLKSLPPGLLLPTTKLKKLNLANNKLRELPSGLLDGLEDLDTLYLQRNWLRTIPKGFFGTLLLPFVFLHANSWYCDCEILYFRHWLQENANNVYLWKQGVDVKDTTPNVASVRCANLDNAPVYSYPGKGCPTSSGDTDYDDYDDIPDVPATRTEVKFSTNTKVHTTHWSLLAAAPSTSQDSQMISLPPTHKPTKKQSTFIHTQSPGFTTLPETMESNPTFYSLKLNTVLIPSPTTLEPTSTQATPEPNIQPMLTTSTLTTPEHSTTPVPTTTILTTPEHSTIPVPTTAILTTPKPSTIPVPTTATLTTLEPSTTPVPTTATLTTPEPSTTLVPTTATLTTPEHSTTPVPTTATLTTPEHSTTPVPTTATLTTPEPSTTLTNLVSTISPVLTTTLTTPESTPIETILEQFFTTELTLLPTLESTTTIIPEQNSFLNLPEVALVSSDTSESSPFLNSDFCCFLPLGFYVLGLLWLLFASVVLILLLTWTWHVTPHSLDMEQSAALATSTHTTSLEVQRARQVTMPRAWLLFLQGSLPTFRSSLFLWVRPNGRVGPLVAGRRPSALSQGRGQDLLGTVGIRYSGHSL
For the molecule B1, the binding entry in experiment [1] and in experiment [2] was “binds” each time.

B2: murine GPIbα (glycoprotein Ibα), wild type, on platelets of GpIbα^+/+ mice (receptor, UniProt O35930 17-734)
chain: QHTCSISKVTSLLEVNCENKKLTALPADLPADTGILHLGENQLGTFSTASLVHFTHLTYLYLDRCELTSLQTNGKLIKLENLDLSHNNLKSLPSLGWALPALTTLDVSFNKLGSLSPGVLDGLSQLQELYLQNNDLKSLPPGLLLPTTKLKKLNLANNKLRELPSGLLDGLEDLDTLYLQRNWLRTIPKGFFGTLLLPFVFLHANSWYCDCEILYFRHWLQENANNVYLWKQGVDVKDTTPNVASVRCANLDNAPVYSYPGKGCPTSSGDTDYDDYDDIPDVPATRTEVKFSTNTKVHTTHWSLLAAAPSTSQDSQMISLPPTHKPTKKQSTFIHTQSPGFTTLPETMESNPTFYSLKLNTVLIPSPTTLEPTSTQATPEPNIQPMLTTSTLTTPEHSTTPVPTTTILTTPEHSTIPVPTTAILTTPKPSTIPVPTTATLTTLEPSTTPVPTTATLTTPEPSTTLVPTTATLTTPEHSTTPVPTTATLTTPEHSTTPVPTTATLTTPEPSTTLTNLVSTISPVLTTTLTTPESTPIETILEQFFTTELTLLPTLESTTTIIPEQNSFLNLPEVALVSSDTSESSPFLNSDFCCFLPLGFYVLGLLWLLFASVVLILLLTWTWHVTPHSLDMEQSAALATSTHTTSLEVQRARQVTMPRAWLLFLQGSLPTFRSSLFLWVRPNGRVGPLVAGRRPSALSQGRGQDLLGTVGIRYSGHSL
Regarding B2, the binding entry in experiment [3] was “binds weakly”.
